Publication doi:10.1101/2020.01.21.914036
Read-outs that look alike come from different tables or passages of the source. Results are given in words; binding and its absence hold for the method and conditions named. For some assays here: In cells and extracts the contact can be indirect. Some binding calls cover weakened binding; strength is not graded here. Each block holds one substance with its values, some of them ahead of it.

The chains behind the UniProt entries cited, without tags or fusion partners. Where a name states a change or a piece, a line headed by the entry shows the natural chain unless it says otherwise.
UniProt Q96RT7, whole entry: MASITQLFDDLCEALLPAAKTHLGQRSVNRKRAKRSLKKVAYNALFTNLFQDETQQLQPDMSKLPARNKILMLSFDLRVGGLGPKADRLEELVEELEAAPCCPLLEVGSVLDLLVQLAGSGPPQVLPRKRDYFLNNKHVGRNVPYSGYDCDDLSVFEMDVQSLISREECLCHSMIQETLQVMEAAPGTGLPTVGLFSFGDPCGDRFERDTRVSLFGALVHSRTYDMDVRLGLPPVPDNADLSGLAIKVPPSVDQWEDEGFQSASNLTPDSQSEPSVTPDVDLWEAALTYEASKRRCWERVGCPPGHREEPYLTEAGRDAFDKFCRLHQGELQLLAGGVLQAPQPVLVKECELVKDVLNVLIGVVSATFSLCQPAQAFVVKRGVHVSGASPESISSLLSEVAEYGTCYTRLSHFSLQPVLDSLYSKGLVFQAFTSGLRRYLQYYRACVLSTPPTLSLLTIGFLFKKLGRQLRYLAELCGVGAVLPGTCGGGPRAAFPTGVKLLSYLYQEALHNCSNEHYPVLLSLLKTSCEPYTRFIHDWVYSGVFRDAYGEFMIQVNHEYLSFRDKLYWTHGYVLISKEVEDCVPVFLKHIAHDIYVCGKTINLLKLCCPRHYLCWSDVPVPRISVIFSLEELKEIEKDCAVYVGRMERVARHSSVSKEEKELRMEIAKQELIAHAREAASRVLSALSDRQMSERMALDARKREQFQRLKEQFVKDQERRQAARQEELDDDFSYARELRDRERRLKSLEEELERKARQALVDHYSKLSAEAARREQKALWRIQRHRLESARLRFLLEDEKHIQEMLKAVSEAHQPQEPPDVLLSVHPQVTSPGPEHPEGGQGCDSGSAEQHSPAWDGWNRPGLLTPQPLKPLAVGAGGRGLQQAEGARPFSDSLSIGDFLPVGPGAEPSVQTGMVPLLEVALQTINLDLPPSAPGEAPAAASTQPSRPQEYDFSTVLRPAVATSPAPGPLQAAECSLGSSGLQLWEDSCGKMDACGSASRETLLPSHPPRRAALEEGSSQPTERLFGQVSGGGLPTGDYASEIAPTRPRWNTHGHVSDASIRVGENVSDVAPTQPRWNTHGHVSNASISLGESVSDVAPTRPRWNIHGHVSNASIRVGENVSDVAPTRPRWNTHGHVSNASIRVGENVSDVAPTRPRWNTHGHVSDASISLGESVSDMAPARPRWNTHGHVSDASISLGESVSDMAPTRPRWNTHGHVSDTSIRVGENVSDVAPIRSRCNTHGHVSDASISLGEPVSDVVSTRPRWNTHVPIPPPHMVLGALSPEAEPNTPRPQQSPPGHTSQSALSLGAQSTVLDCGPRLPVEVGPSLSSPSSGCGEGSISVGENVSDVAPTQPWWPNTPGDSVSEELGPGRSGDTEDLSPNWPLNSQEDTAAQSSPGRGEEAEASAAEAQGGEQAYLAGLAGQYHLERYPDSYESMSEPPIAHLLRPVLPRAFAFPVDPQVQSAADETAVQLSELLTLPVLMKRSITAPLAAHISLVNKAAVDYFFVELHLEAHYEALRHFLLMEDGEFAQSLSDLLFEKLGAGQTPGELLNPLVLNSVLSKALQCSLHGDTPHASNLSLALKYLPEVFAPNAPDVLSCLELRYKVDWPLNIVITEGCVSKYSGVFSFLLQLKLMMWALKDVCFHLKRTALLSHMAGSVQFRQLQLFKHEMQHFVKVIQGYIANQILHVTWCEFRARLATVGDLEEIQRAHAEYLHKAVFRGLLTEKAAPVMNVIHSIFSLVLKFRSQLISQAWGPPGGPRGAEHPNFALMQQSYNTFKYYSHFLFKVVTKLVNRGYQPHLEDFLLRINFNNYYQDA
UniProt Q9UGJ1, whole entry: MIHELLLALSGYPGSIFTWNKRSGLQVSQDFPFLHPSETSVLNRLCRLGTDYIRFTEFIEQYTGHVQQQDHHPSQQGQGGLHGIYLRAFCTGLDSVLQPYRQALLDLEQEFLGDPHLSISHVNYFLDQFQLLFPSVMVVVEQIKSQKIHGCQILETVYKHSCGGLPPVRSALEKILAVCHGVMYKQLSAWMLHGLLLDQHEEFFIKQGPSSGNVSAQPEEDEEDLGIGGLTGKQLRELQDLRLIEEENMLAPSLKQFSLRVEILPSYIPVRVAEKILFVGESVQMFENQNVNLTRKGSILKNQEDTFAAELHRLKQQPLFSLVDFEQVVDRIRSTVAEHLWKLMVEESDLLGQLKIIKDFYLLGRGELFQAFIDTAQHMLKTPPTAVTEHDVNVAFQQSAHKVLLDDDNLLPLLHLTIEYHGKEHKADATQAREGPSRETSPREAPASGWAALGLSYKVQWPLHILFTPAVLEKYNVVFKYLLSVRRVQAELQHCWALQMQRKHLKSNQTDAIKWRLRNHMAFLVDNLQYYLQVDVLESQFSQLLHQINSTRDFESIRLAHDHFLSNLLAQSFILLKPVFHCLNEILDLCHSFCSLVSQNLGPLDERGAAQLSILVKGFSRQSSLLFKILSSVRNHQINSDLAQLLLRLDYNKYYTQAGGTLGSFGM
UniProt Q96RT8, whole entry: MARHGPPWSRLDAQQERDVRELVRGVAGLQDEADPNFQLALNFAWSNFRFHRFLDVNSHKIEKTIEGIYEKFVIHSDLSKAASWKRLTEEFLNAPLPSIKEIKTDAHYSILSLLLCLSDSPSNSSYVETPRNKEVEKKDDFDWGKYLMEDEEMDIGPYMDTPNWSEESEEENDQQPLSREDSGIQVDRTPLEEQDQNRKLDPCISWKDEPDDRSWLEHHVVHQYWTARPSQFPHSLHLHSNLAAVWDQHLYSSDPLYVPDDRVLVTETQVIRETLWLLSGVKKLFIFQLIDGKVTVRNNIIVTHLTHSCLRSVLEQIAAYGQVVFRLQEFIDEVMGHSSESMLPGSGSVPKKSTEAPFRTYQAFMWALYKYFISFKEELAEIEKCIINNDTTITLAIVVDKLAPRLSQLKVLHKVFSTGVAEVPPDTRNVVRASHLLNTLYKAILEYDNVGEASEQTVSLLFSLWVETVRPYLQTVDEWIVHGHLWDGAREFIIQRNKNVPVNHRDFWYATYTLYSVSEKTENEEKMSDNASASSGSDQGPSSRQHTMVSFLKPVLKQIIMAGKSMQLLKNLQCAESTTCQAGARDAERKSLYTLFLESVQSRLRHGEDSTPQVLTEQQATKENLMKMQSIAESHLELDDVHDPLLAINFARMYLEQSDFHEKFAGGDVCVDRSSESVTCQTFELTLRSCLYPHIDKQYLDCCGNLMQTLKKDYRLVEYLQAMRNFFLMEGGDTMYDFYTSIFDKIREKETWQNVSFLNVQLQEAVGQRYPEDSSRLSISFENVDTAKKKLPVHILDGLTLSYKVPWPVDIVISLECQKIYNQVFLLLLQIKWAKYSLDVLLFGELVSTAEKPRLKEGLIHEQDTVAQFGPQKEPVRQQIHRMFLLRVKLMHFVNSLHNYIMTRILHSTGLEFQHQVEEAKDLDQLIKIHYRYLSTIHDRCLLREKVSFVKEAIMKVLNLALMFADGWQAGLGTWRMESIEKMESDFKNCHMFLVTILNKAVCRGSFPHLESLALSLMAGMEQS
UniProt Q9BSJ2, whole entry: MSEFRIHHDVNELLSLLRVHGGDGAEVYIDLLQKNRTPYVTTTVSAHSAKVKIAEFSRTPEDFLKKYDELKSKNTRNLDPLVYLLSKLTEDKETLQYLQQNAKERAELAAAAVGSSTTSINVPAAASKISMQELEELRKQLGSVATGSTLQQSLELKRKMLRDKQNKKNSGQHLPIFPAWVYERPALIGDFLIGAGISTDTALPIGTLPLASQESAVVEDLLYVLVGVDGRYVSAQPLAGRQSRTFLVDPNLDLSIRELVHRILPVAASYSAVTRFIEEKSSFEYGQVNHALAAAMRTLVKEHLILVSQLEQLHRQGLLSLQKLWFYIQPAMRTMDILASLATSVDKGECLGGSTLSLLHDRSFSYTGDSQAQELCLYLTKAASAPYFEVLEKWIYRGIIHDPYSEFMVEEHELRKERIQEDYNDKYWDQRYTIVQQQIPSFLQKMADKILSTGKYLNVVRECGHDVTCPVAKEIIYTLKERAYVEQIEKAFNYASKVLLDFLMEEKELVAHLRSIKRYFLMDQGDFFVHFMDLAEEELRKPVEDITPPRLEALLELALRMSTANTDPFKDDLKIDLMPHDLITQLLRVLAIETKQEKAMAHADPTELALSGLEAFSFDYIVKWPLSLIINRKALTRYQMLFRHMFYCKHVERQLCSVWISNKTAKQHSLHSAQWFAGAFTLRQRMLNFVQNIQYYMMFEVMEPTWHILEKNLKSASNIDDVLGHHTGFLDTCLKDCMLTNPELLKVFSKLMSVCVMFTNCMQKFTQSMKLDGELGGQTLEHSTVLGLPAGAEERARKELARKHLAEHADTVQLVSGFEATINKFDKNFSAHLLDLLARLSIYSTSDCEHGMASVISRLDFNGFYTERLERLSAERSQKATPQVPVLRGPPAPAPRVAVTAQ
UniProt Q96CW5, whole entry: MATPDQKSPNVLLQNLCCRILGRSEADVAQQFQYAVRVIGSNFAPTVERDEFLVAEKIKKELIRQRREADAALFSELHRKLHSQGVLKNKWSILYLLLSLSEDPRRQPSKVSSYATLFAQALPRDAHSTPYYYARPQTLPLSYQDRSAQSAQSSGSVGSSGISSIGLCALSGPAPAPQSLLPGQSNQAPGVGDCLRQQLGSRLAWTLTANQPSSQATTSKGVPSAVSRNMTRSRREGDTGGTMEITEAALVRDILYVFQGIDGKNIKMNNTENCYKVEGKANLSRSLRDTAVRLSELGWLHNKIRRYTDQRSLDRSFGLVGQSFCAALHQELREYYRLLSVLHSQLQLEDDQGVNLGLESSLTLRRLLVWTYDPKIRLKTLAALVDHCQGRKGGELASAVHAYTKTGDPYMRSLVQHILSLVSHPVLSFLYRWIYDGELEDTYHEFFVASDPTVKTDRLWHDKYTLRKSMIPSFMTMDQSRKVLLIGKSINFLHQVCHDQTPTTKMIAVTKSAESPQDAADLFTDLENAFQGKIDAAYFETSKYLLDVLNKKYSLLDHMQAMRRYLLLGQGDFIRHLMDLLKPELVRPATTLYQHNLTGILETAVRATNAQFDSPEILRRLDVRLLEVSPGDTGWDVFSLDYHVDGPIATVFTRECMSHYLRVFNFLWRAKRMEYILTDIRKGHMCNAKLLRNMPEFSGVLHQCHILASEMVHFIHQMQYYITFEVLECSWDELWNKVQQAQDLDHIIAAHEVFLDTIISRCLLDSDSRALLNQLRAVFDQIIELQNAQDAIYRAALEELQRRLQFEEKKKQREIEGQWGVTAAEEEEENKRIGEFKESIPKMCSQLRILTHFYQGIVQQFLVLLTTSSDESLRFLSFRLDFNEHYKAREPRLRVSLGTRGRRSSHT

Columns and labels:
GCP6 352-1819 = GCP6 352-1819 (UniProt Q96RT7); test: co-IP
[1] = target: GCP6 (gamma-tubulin complex protein 6) (human (endogenous in HeLa)) (UniProt Q96RT7); test: co-IP
GCP6 280-1819 [2] = target: GCP6 280-1819 (UniProt Q96RT7); test: co-IP
[3] = target: overexpressed GCP6 (wild type) (UniProt Q96RT7); test: co-IP
GCP6 280-1819 [4] = target: GCP6 280-1819 (UniProt Q96RT7); test: co-IP; remark: listed apart in the source
[5] = target: GCP6 (gamma-tubulin complex protein 6) (human (endogenous in HeLa)) (UniProt Q96RT7); test: co-IP; remark: listed apart in the source
[6] = target: GCP6 with a C-terminal GST-hexa-histidine tag (human (endogenous in HEK293)) (UniProt Q96RT7); test: SEC
[7] = target: GCP4 (gamma-tubulin complex protein 4) (human (endogenous in HeLa)) (UniProt Q9UGJ1); test: co-IP
[8] = target: GCP5 (gamma-tubulin complex protein 5) (human (endogenous in HeLa)) (UniProt Q96RT8); test: co-IP
[9] = target: GCP4 (gamma-tubulin complex protein 4) (human (endogenous in HeLa)) (UniProt Q9UGJ1); test: co-IP; remark: listed apart in the source
[10] = target: GCP5 (gamma-tubulin complex protein 5) (human (endogenous in HeLa)) (UniProt Q96RT8); test: co-IP; remark: listed apart in the source
[11] = target: GCP5 (gamma-tubulin complex protein 5) (human (endogenous in HeLa)) (UniProt Q96RT8); test: co-IP; remark: listed apart in the source
[12] = target: GCP4 (gamma-tubulin complex protein 4) (human (endogenous in HeLa)) (UniProt Q9UGJ1); test: co-IP; remark: listed apart in the source
[13] = target: GCP4 (gamma-tubulin complex protein 4) (human (endogenous in HeLa)) (UniProt Q9UGJ1); test: co-IP; remark: listed apart in the source
[14] = target: GCP5 (gamma-tubulin complex protein 5), HEK293 (human (endogenous in HEK293)) (UniProt Q96RT8); test: co-IP
[15] = target: GCP5 (gamma-tubulin complex protein 5), HEK293 (human (endogenous in HEK293)) (UniProt Q96RT8); test: co-IP; remark: listed apart in the source

Substance: GCP4 (gamma-tubulin complex protein 4) (from UniProt Q9UGJ1 1-667)
- binding (GCP6 352-1819): no binding
- binding [1]: binds
- binding (GCP6 280-1819 [2]): binds
- binding [3]: binds
- binding (GCP6 280-1819 [4]): no binding (condition: 500 mM KCl)
- binding [5]: binds

Substance: GCP4 (gamma-tubulin complex protein 4), HEK293 (from UniProt Q9UGJ1 1-667)
- binding [6]: binds

Substance: GCP2 (gamma-tubulin complex protein 2) (from UniProt Q9BSJ2 1-902)
- binding [7]: binds
- binding [8]: binds
- binding [9]: no binding (condition: 500 mM KCl)
- binding [10]: no binding (condition: 500 mM KCl)
- binding [11]: binds

Substance: GCP6 (gamma-tubulin complex protein 6) (from UniProt Q96RT7 1-1819)
- binding [7]: binds
- binding [12]: binds
- binding [13]: binds

Results, then the substance that gave them:

- binding [7]: binds
- binding [9]: no binding (condition: 500 mM KCl)
Substance: GCP3 (gamma-tubulin complex protein 3) (from UniProt Q96CW5 1-907)

- binding [14]: no binding (condition: 600 mM KCl)
- binding [15]: binds
Substance: GCP2 (gamma-tubulin complex protein 2), HEK293 (from UniProt Q9BSJ2 1-902)

- binding [7]: binds
Substance: GCP6Δ675-1400 (from UniProt Q96RT7 1-1819)
